Source: the supplement of paper PMC10849652
Some of the results follow.

By UniProt entry, the sequences of proteins in these tests, tags left out. Where a name states a change or a piece, a line headed by the entry shows the natural chain unless it says otherwise.
UniProt P00374: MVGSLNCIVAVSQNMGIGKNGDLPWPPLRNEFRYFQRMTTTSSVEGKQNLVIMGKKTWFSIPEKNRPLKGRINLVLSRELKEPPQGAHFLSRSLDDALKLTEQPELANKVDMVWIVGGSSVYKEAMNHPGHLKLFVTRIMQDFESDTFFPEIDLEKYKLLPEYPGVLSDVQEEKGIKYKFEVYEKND
UniProt Q13268: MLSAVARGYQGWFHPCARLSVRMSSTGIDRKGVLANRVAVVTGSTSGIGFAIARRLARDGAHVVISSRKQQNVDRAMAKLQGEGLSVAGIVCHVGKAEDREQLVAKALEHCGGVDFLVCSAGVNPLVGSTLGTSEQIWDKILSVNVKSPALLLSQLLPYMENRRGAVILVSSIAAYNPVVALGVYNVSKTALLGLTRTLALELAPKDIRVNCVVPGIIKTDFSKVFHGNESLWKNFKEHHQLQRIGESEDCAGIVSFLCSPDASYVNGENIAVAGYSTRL
UniProt Q9NR28: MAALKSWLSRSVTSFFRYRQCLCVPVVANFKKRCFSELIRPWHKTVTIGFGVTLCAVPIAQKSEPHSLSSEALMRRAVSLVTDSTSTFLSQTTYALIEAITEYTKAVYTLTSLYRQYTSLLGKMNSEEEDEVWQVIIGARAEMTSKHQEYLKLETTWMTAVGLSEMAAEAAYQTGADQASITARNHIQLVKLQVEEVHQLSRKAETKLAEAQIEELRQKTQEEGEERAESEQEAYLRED
UniProt Q99766: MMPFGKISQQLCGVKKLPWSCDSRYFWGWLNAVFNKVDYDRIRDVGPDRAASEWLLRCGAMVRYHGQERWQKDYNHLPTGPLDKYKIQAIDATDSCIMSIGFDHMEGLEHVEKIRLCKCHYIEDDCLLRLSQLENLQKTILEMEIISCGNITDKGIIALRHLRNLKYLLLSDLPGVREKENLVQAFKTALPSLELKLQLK
UniProt Q8TBM8: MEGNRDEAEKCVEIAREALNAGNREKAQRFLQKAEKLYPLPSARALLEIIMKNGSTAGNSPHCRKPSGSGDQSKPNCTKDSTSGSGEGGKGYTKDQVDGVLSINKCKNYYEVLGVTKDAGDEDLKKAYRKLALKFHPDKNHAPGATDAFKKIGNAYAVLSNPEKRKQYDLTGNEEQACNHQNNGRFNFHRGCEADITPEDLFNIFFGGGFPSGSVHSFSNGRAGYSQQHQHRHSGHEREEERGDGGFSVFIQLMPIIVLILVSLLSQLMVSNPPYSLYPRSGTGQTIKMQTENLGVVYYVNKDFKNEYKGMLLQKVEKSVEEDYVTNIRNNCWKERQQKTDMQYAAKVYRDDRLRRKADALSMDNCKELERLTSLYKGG
UniProt O43143: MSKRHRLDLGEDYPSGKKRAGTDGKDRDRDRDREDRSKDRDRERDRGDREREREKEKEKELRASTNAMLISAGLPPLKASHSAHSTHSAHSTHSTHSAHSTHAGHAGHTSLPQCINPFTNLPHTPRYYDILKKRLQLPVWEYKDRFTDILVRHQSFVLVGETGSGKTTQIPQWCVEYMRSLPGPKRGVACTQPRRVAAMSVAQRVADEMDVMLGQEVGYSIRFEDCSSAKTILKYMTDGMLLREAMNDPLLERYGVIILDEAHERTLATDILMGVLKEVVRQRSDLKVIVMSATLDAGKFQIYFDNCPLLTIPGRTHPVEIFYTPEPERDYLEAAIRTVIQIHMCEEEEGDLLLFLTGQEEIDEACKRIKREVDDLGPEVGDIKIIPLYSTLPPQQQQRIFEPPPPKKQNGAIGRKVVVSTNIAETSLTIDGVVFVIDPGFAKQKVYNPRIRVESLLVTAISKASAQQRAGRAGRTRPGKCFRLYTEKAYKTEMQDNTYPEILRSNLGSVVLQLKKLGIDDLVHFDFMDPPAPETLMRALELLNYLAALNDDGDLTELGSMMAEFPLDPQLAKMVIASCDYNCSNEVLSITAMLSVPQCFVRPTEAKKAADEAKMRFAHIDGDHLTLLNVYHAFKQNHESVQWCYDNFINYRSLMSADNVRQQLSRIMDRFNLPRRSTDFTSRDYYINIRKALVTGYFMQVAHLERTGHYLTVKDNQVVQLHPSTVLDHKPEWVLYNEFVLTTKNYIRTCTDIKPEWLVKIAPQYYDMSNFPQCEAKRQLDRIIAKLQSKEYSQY
UniProt Q6UWP2: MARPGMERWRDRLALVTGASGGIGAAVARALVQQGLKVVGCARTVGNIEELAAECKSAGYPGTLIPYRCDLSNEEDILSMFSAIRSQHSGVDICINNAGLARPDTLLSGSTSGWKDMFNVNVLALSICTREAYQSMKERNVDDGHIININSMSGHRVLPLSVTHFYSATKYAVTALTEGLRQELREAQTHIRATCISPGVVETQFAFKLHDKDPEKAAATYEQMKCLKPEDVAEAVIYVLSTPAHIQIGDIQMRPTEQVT
UniProt Q9P265: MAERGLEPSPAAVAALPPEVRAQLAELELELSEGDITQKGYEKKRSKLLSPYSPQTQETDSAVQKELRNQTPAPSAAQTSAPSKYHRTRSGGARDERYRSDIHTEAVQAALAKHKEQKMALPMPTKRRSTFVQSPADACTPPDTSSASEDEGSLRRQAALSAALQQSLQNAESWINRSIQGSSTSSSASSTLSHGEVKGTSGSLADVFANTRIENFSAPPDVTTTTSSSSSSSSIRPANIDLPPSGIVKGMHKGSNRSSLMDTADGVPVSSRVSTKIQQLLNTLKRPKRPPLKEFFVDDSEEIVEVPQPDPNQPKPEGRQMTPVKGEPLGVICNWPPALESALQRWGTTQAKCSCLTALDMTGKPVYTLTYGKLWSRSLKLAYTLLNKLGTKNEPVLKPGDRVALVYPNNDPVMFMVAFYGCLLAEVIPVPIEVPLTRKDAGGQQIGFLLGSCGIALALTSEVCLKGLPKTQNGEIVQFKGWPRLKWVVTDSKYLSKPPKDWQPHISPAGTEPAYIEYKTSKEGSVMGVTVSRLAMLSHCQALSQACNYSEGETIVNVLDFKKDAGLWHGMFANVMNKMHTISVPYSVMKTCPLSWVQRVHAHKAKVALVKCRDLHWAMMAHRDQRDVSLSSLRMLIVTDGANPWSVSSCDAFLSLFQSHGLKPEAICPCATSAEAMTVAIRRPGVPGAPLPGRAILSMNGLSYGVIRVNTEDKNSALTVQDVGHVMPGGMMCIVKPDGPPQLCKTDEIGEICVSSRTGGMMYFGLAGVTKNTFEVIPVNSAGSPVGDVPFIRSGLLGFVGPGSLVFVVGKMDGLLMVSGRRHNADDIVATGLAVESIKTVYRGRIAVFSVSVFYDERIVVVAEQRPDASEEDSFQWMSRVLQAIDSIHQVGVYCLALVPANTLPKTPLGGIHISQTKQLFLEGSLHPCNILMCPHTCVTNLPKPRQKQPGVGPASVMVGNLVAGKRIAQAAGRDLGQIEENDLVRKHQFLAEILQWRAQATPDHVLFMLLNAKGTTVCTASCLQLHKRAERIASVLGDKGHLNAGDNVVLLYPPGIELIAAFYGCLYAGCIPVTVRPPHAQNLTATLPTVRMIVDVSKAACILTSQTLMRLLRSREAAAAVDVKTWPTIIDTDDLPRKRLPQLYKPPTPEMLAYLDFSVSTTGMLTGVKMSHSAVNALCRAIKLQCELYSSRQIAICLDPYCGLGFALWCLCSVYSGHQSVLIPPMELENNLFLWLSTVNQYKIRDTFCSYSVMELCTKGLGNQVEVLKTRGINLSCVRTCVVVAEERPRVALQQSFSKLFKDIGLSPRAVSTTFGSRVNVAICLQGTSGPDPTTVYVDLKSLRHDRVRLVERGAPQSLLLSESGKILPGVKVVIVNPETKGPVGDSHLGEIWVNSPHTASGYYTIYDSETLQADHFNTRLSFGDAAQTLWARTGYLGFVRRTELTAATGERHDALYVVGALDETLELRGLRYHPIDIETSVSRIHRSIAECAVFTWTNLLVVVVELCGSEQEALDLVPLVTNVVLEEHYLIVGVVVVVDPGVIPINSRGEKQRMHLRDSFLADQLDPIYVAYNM
UniProt Q86YN1: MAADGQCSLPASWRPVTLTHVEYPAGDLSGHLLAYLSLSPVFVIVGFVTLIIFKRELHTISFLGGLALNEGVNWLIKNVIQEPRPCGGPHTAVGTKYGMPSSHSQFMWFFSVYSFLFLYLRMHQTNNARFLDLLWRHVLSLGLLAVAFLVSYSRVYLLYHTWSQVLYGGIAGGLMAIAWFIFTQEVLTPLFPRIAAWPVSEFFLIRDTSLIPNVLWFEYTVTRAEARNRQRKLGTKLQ
UniProt Q8N5I4: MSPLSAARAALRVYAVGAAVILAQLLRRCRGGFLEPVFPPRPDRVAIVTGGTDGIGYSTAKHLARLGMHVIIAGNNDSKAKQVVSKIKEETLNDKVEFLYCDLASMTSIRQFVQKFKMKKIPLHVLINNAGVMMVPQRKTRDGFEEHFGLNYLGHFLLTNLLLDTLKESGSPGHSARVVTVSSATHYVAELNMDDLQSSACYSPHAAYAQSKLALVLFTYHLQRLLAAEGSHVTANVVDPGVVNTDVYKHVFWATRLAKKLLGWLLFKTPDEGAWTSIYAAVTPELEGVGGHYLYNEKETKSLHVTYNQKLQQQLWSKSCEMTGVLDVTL
UniProt Q9H147: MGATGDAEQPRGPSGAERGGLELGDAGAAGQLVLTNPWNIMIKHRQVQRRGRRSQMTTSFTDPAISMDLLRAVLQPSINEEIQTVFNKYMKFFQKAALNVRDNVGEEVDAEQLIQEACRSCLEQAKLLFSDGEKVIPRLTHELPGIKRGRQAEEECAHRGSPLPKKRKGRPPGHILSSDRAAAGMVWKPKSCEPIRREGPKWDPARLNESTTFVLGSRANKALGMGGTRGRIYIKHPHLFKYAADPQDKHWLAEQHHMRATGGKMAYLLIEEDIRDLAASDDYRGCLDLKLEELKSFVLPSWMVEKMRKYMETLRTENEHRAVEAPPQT
UniProt P51530: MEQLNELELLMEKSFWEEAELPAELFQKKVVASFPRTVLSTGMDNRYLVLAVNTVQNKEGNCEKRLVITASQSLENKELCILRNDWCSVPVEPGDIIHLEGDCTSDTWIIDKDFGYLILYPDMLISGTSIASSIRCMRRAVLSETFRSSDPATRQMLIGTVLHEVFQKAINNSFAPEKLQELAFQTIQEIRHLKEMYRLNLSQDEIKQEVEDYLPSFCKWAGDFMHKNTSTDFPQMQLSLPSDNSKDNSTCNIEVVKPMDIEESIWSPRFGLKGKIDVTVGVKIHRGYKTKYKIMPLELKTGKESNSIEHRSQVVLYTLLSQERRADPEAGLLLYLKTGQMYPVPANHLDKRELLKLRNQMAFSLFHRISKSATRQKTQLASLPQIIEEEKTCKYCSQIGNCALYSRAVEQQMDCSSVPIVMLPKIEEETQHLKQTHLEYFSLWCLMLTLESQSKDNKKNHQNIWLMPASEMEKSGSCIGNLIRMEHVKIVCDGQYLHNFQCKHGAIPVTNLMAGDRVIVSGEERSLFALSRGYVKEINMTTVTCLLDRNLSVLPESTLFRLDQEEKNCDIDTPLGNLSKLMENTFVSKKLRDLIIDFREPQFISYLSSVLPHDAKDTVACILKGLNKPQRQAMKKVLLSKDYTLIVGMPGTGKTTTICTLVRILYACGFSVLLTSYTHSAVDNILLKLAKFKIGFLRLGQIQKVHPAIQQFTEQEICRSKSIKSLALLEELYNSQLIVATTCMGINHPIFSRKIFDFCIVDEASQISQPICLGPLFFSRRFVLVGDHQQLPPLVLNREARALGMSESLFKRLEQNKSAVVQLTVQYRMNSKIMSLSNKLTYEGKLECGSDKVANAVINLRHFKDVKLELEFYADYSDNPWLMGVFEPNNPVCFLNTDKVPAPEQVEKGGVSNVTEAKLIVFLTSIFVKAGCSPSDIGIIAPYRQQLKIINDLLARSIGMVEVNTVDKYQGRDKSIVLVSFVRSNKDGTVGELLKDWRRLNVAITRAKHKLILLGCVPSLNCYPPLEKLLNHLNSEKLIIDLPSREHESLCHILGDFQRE
UniProt Q96GE9: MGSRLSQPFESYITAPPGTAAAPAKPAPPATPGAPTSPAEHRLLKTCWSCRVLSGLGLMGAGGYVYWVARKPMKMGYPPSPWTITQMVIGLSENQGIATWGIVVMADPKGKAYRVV
UniProt P98153: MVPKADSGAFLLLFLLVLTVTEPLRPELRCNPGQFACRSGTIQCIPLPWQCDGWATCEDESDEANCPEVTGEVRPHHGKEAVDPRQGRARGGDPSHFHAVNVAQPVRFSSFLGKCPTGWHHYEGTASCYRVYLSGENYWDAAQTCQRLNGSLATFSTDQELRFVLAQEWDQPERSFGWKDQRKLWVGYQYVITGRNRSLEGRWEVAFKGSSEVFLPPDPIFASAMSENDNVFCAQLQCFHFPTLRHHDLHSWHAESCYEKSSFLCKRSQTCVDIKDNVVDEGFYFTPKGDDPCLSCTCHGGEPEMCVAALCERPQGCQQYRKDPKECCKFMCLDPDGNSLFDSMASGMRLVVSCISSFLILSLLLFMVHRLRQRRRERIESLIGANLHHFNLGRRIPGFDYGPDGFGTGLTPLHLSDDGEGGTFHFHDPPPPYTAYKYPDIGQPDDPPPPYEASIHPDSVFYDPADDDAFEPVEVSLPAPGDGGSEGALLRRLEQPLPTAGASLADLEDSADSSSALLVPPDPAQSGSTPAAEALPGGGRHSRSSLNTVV

Columns and labels:
Assay in all cases: log2 fold change, soluble protein after heating vs DMSO (PISA); higher = thermal stabilisation; K562 lysate, 10 uM; active = over 0.2 and 3.5 SD of the protein, either way, in both replicates (recomputed)
[1] = compound: C1=CC=C(C=C1)[C@H](COC2=CC3=C(C=C2)NC(=O)N3)NC(=O)C4=CC=CN(C4=O)CC5=CC(=C(C=C5)F)F
Summary of the method: (§1)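 Log-two fold change in thermal stability relative to solvent controls is reported from duplicates. For each sample, crude K562 extract from dounce-homogenised pellets in PBS pH 7.4 with 1 mM MgCl2, at 1 mg/mL protein, was treated with 10 μM compound for 30 min. Aliquots heated for 3 min across 48°C-58°C were pooled, brought to 0.5% NP-40 at 4°C and cleared at 21,000xg for 90 min. The supernatant was quantified by TMTpro 16plex LC-MS/MS with channel sums equalised.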

[2] = compound: CC1=C(SC2=C1C(=N[C@H](C3=NN=C(N32)C)CC(=O)N)C4=CC=C(C=C4)Cl)C
Summary of the method: as §1

[3] = compound: CC1=C2C(=CC=C1)N=C(N(C2=O)C3=CC=CC=C3C)CN4C=NC5=C(N=CN=C54)N
Summary of the method: as §1

[4] = compound: Cc1sc2c(c1C)C(c1ccc(Cl)cc1)=N[C@@H](CC(=O)OC(C)(C)C)c1nnc(C)n1-2
Summary of the method: as §1

[5] = compound: c1ccc([C@@H]2C[C@H]2NC2CCNCC2)cc1
Summary of the method: as §1

Measured: log2 fold change

DHX9 (UniProt Q08211)
inactive: [1] 0.015 | [2] 0.007 | [3] 0.011 | [4] 0.019 | [5] 0.038

DHFR (UniProt P00374)
inactive: [1] -0.024 | [2] 0.024 | [3] 0.016 | [4] 0.031 | [5] 0.021

DHRS2 (UniProt Q13268)
inactive: [1] -0.046 | [2] 0.068 | [3] -0.003 | [4] 0.045 | [5] 0.006

DNAJB4 (UniProt Q9UDY4)
inactive: [1] -0.04 | [2] 0.006 | [3] 0.022 | [4] -0.005 | [5] 0.031

DIP2A (UniProt Q14689)
inactive: [1] -0.029 | [2] 0.006 | [3] 0.039 | [4] 0.021 | [5] -0.034

DHX38 (UniProt Q92620)
inactive: [1] 0.029 | [2] -0.024 | [3] -0.005 | [4] 0.007 | [5] 0.026

DNAJC6 isoform 2 (UniProt O75061)
inactive: [1] 0.092 | [2] -0.026 | [3] 0.011 | [4] -0.012 | [5] -0.071

DIABLO (UniProt Q9NR28)
inactive: [1] -0.002 | [2] -0.061 | [3] -0.002 | [4] -0.061 | [5] -0.002

DNAJA1 (UniProt P31689)
inactive: [1] 0.013 | [2] -0.008 | [3] -0.025 | [4] -0.016 | [5] -0.036

DNAJC2 (UniProt Q99543)
inactive: [1] 0.049 | [2] -0.003 | [3] -0.015 | [4] 0.051 | [5] 0.086

DMAC2L (UniProt Q99766)
inactive: [1] -0.031 | [2] -0.048 | [3] 0.057 | [4] -0.005 | [5] -0.061

DNAH10 (UniProt Q8IVF4)
inactive: [1] 0.069 | [2] 0.014 | [3] 0.095 | [4] -0.081 | [5] -0.274

DNAL1 (UniProt Q4LDG9)
inactive: [1] 0.121 | [2] 0.044 | [3] 0.043 | [4] 0.01 | [5] 0.126

DOK1 (UniProt Q99704)
inactive: [1] 0.048 | [2] -0.024 | [3] -0.005 | [4] 0.064 | [5] -0.036

DNAH12 (UniProt Q6ZR08)
inactive: [1] 0.02 | [2] 0.121 | [3] -0.042 | [4] -0.018 | [5] -0.099

DNAJB14 (UniProt Q8TBM8)
inactive: [1] 0.059 | [2] -0.043 | [3] 0.086 | [4] -0.037 | [5] 0.034

DIAPH1 (UniProt O60610)
inactive: [1] -0.005 | [2] 0.013 | [3] 0.015 | [4] 0.007 | [5] 0.023

DHX15 (UniProt O43143)
inactive: [1] 0.018 | [2] 0.019 | [3] 0.009 | [4] -0.015 | [5] -0.004

DIDO1 (UniProt Q9BTC0)
inactive: [1] -0.126 | [2] 0.022 | [3] 0.096 | [4] 0.007 | [5] 0.01

DGCR8 (UniProt Q8WYQ5)
inactive: [1] -0.05 | [2] 0.063 | [3] 0.004 | [4] 0.029 | [5] 0.017

DHRS11 (UniProt Q6UWP2)
inactive: [1] -0.004 | [2] 0.012 | [3] 0.018 | [4] 0.013 | [5] 0.014

DNAJC11 (UniProt Q9NVH1)
inactive: [1] -0.022 | [2] 0.038 | [3] 0.031 | [4] 0.02 | [5] 0.022

Reprinted at random: 4 entries already listed
DIDO1 (UniProt Q9BTC0)
inactive: [1] -0.126 | [2] 0.022 | [3] 0.096 | [4] 0.007 | [5] 0.01

DHX15 (UniProt O43143)
inactive: [1] 0.018 | [2] 0.019 | [3] 0.009 | [4] -0.015 | [5] -0.004

DIAPH1 (UniProt O60610)
inactive: [1] -0.005 | [2] 0.013 | [3] 0.015 | [4] 0.007 | [5] 0.023

DGCR8 (UniProt Q8WYQ5)
inactive: [1] -0.05 | [2] 0.063 | [3] 0.004 | [4] 0.029 | [5] 0.017

Remaining list, next part:

DNASE2 (UniProt O00115)
inactive: [1] 0.005 | [2] -0.039 | [3] -0.072 | [4] 0.035 | [5] -0.001

DHRS1 (UniProt Q96LJ7)
inactive: [1] 0.15 | [2] -0.103 | [3] -0.015 | [4] 0.029 | [5] -0.107

DNAH8 (UniProt Q96JB1)
inactive: [1] -0.036 | [2] 0.131 | [3] 0.092 | [4] -0.174 | [5] -0.053

DIP2B (UniProt Q9P265)
inactive: [1] 0.013 | [2] 0.024 | [3] 0.021 | [4] 0.003 | [5] -0.014

DNAAF2 (UniProt Q9NVR5)
inactive: [1] 0.04 | [2] -0.017 | [3] -0.014 | [4] -0.006 | [5] -0.021

DMTN (UniProt Q08495)
inactive: [1] 0.026 | [2] 0.009 | [3] -0.019 | [4] -0.01 | [5] -0.005

DNAH9 (UniProt Q9NYC9)
inactive: [1] -0.024 | [2] 0.027 | [3] -0.031 | [4] -0.02 | [5] -0.023

DOLPP1 (UniProt Q86YN1)
inactive: [1] 0.05 | [2] -0.062 | [3] -0.111 | [4] 0.043 | [5] -0.147

DNAJC1 (UniProt Q96KC8)
inactive: [1] -0.113 | [2] -0.021 | [3] 0.039 | [4] -0.011 | [5] 0.021

DNAJC3 (UniProt Q13217)
inactive: [1] 0.06 | [2] -0.073 | [3] -0.003 | [4] -0.01 | [5] 0.031

DMXL2 isoform 3 (UniProt Q8TDJ6)
inactive: [1] 0.018 | [2] -0.08 | [3] 0.055 | [4] 0.092 | [5] 0.033

DNPH1 (UniProt H0Y8X4)
inactive: [1] 0.034 | [2] 0.01 | [3] -0.023 | [4] -0.019 | [5] -0.002

DNTTIP2 (UniProt Q5QJE6)
inactive: [1] 0.027 | [2] -0.081 | [3] 0.175 | [4] -0.024 | [5] 0.01

DNAJB11 (UniProt Q9UBS4)
inactive: [1] 0.032 | [2] 0.011 | [3] 0.034 | [4] -0.033 | [5] -0.053

DOCK9 isoform 4 (UniProt Q9BZ29)
inactive: [1] 0.049 | [2] -0.028 | [3] 0.019 | [4] 0.029 | [5] -0.021

DIEXF (UniProt Q68CQ4)
inactive: [1] -0.068 | [2] 0.099 | [3] -0.015 | [4] -0.003 | [5] 0.004

DNAJC8 (UniProt O75937)
inactive: [1] -0.001 | [2] -0.007 | [3] -0.028 | [4] 0.01 | [5] 0.048

DNPEP (UniProt Q9ULA0)
inactive: [1] 0.023 | [2] 0.016 | [3] -0.022 | [4] -0.038 | [5] -0.014

DICER1 (UniProt Q9UPY3)
inactive: [1] 0.028 | [2] 0.006 | [3] 0.045 | [4] 0.029 | [5] -0.038

DIMT1 (UniProt Q9UNQ2)
inactive: [1] -0.01 | [2] 0.032 | [3] -0.013 | [4] -0.003 | [5] 0.005

DHRSX (UniProt Q8N5I4)
inactive: [3] 0.006 | [4] -0.064

DNTTIP1 (UniProt Q9H147)
inactive: [3] 0.004 | [4] 0.012 | [5] 0.158

DHX32 (UniProt Q7L7V1)
inactive: [3] -0.086 | [5] -0.009

DOP1B (UniProt Q9Y3R5)
inactive: [3] 0.071 | [5] -0.164

DGKQ (UniProt P52824)
inactive: [3] 0 | [4] -0.143 | [5] -0.044

DHX33 (UniProt Q9H6R0)
inactive: [4] 0.213 | [5] 0.229

DNA2 (UniProt P51530)
inactive: [3] 0.047 | [4] 0.072 | [5] 0.026

DOCK6 (UniProt Q96HP0)
inactive: [4] 0.117

DGKE (UniProt P52429)
inactive: [3] 0.709 | [4] 0.043 | [5] -0.17

DMAC1 (UniProt Q96GE9)
inactive: [3] -0.003 | [5] -0.024

DMBT1 isoform 6 (UniProt Q9UGM3)
inactive: [3] 0.785 | [5] 0.087

DOT1L isoform 1 (UniProt Q8TEK3)
inactive: [3] 0 | [4] 0.074

DHPS (UniProt M0R1T2)
inactive: [5] -0.274

DNAJB1 (UniProt M0R128)
inactive: [1] -0.25 | [2] 0.269 | [5] -0.326

DNLZ (UniProt Q5SXM8)
inactive: [5] -0.135

DNAJB9 (UniProt Q9UBS3)
inactive: [4] 0.06

DGCR2 (UniProt P98153)
inactive: [3] -0.056 | [4] 0.042 | [5] 0.015

DNMT3B (UniProt Q9UBC3)
inactive: [3] -0.066

DMTN isoform 2 (UniProt Q08495)
inactive: [3] 0.039 | [4] 0.019 | [5] 0.087
